Measured values: PubChem BioAssay (EPA / NIEHS)
The shares of active, inactive and inconclusive entries below differ from those in the screen. For some assays here: Where the call is inconclusive, the potency comes from a doubtful curve fit. Activity calls are given as the source filed them. How the source made its calls: active means hit-call score of the fitted dose curve at least 0.9, where 1 is the maximum; inconclusive means response in the unintended direction; inactive means score below 0.9.

Sequences of proteins named here, by UniProt entry; tags and fusion partners are left off. A change or cut given only in a name is not applied to a line headed by its entry.
UniProt P33261, whole entry, looked up: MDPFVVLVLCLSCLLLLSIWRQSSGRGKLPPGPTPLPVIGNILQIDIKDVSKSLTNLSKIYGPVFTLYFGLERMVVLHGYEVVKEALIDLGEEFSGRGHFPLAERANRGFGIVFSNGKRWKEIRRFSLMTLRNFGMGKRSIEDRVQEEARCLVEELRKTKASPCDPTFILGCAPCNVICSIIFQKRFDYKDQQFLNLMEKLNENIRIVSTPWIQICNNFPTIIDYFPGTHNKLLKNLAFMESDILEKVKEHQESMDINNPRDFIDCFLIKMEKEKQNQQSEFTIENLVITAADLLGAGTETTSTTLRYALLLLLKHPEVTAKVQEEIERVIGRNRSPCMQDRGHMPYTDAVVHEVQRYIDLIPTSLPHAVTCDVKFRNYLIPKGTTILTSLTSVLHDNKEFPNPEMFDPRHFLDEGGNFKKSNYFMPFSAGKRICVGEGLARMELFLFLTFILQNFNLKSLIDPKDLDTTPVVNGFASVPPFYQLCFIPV
UniProt P04406: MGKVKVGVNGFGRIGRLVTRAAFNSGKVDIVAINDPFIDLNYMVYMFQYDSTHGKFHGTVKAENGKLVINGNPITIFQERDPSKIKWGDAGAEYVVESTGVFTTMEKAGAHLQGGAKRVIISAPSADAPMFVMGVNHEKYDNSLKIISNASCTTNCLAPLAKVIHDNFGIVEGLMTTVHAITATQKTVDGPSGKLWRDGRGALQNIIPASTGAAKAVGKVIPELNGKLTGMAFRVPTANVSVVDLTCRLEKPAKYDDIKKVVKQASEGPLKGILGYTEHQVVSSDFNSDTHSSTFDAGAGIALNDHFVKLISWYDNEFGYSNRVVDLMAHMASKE
UniProt P11712, whole entry, looked up: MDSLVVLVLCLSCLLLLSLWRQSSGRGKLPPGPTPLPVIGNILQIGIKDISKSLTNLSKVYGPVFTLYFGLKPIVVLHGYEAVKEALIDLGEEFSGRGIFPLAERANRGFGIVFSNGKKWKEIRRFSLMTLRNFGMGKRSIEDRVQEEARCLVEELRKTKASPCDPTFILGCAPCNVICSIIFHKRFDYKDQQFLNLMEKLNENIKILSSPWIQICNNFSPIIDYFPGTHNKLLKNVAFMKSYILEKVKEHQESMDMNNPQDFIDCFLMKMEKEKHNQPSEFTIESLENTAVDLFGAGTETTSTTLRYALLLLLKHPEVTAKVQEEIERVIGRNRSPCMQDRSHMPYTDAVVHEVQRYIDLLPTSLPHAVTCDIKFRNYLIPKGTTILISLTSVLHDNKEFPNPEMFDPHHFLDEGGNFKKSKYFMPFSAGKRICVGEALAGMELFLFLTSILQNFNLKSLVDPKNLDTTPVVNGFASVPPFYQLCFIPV
UniProt Q9UNQ0: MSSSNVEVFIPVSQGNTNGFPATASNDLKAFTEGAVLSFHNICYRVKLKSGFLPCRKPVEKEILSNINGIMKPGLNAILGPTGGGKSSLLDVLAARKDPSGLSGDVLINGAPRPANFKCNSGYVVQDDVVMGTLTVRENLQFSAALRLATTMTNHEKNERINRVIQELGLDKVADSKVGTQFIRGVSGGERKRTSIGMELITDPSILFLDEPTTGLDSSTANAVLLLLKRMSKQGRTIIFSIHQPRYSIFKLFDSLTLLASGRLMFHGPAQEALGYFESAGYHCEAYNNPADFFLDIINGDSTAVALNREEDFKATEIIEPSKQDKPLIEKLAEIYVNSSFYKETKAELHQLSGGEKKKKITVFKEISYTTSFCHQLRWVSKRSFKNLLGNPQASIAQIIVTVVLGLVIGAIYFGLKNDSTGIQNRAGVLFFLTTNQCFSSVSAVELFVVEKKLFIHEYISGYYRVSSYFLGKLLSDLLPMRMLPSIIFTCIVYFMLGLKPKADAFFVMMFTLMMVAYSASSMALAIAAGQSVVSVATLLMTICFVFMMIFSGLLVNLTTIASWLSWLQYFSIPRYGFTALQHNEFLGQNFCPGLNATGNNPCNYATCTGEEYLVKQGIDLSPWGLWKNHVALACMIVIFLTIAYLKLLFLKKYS
UniProt P20813: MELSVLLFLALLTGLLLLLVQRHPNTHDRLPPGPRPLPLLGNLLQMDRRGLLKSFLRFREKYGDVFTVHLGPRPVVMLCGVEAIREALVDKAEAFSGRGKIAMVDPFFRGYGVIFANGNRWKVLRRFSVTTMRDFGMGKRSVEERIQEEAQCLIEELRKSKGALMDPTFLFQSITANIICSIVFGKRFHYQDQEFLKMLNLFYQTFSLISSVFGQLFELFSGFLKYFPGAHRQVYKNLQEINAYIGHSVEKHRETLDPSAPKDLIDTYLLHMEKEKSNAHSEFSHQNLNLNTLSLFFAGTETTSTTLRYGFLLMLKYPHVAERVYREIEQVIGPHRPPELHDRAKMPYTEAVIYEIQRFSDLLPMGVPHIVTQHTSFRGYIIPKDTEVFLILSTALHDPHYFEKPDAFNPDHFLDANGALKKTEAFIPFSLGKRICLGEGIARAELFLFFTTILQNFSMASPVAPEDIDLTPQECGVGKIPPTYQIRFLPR
UniProt P08684, whole entry, looked up: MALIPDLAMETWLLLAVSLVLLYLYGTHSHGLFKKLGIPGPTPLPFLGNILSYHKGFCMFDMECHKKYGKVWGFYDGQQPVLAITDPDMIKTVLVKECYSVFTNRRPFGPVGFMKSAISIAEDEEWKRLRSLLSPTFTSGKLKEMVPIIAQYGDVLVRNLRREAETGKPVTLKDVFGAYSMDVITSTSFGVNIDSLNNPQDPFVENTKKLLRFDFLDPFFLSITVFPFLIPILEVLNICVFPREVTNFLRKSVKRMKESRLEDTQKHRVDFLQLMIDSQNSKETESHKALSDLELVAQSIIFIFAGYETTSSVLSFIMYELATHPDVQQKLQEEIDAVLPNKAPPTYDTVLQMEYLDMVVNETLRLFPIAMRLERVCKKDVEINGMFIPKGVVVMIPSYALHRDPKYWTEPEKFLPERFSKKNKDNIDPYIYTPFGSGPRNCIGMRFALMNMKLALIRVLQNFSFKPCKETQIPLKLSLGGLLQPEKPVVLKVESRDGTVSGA

Columns and labels:
[1] = read-out: Cytochrome P450 2C19 (Homo sapiens) (UniProt P33261); test: CLD_CYP2C19_24hr: CellzDirect (CLD) Gene Expression Assay for xenobiotic metabolism (CYP2C19) at 24 hours (AID 2283687)
Procedure, shortened: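 CYP2C19 mRNA was quantified by qNPA chemiluminescence after 24 h of daily dosing of cultured human primary hepatocytes from two donors; vehicle was 0.2% DMSO, and increases over DMSO baseline were fitted.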

[2] = read-out: HMG-CoA synthase (HMGCS2), HMGCS2 (gene 3158); test: CLD_HMGCS2_24hr: CellzDirect (CLD) Gene Expression Assay for HMG-CoA synthase (HMGCS2) at 24 hours (AID 2283691)
Procedure, shortened: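 qNPA with S1 nuclease digestion and chemiluminescent detection gave HMGCS2 transcript levels, fitted upward against 0.2% DMSO vehicle. Cultured human hepatocytes (two donors) received fresh compound daily and were harvested at 24 h; phase-contrast morphology flagged cytotoxicity.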

[3] = read-out: Glyceraldehyde-3-phosphate dehydrogenase (Homo sapiens) (UniProt P04406); test: CLD_GAPDH_24hr: CellzDirect (CLD) Gene Expression Assay for Baseline Control (Glyceraldehyde 3-phosphate dehydrogenase) at 24 hours (AID 2283692)
Procedure, shortened: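 GAPDH baseline-control readout: qNPA chemiluminescent mRNA signal in human primary hepatocytes harvested 24 h after daily dosing, normalised to 0.2% DMSO with positive fitting direction; cytotoxicity annotated by phase-contrast morphology.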

[4] = read-out: alkyl and aryl transferase (GSTA2), GSTA2 (gene 2939); test: CLD_GSTA2_24hr: CellzDirect (CLD) Gene Expression Assay for alkyl and aryl transferase (GSTA2) at 24 hours (AID 2283693)
Procedure, shortened: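 GSTA2 transcript levels were quantified by quantitative nuclease protection assay in primary human hepatocytes 24 h after daily dosing with fresh solutions at multiple concentrations; 0.2% DMSO vehicle as baseline, cytotoxicity flagged morphologically.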

[5] = read-out: ABC Transporter (ABCB1), ABCB1 (gene 5243); test: CLD_ABCB1_48hr: CellzDirect (CLD) Gene Expression Assay for ABC Transporter (ABCB1) at 48 hours (AID 2283695);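 on AC50: potency for induction meaning increase of mRNA over DMSO vehicle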
Procedure, shortened: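 ABCB1 mRNA was measured by quantitative nuclease protection assay (chemiluminescence) 48 h after dosing. Human hepatocyte cultures from two separate donors received fresh dosing solutions daily for two days, with 0.2% DMSO as vehicle. Positive-direction fit against DMSO.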

[6] = read-out: Cytochrome P450 2C19 (Homo sapiens) (UniProt P33261); test: CLD_CYP2C19_48hr: CellzDirect (CLD) Gene Expression Assay for xenobiotic metabolism (CYP2C19) at 48 hours (AID 2283700)
Procedure, shortened: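 CYP2C19 mRNA induction read by chemiluminescent quantitative nuclease protection assay after 48 h, with fresh compound added daily for two days to cultured human liver hepatocytes. Activity fitted upward against 0.2% DMSO vehicle.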

[7] = CLD_ACTIN_48hr: CellzDirect (CLD) Gene Expression Assay for Baseline Control (Actin) at 48 hours (AID 2283702)
Procedure, shortened: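 Background-control actin mRNA read by qNPA chemiluminescence at 48 h. Human hepatocyte cultures from two donors received fresh multi-concentration chemical doses daily for two days; 0.2% DMSO served as vehicle baseline.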

[8] = read-out: xenobiotic metabolism (CYP1A1), CYP1A1 (gene 1543); test: CLD_CYP1A1_48hr: CellzDirect (CLD) Gene Expression Assay for xenobiotic metabolism (CYP1A1) at 48 hours (AID 2283705)
Procedure, shortened: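 CYP1A1 transcript measured by quantitative nuclease protection (chemiluminescent) 48 h after two daily treatments of human hepatocyte cultures, versus 0.2% DMSO. Morphology-based cytotoxicity flags accompany data; two donor preparations used.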

[9] = read-out: Glyceraldehyde-3-phosphate dehydrogenase (Homo sapiens) (UniProt P04406); test: CLD_GAPDH_48hr: CellzDirect (CLD) Gene Expression Assay for Baseline Control (Glyceraldehyde 3-phosphate dehydrogenase) at 48 hours (AID 2283706)
Procedure, shortened: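 GAPDH baseline-control readout: qNPA chemiluminescent mRNA quantitation in human liver primary cells 48 h after daily dosing on two consecutive days, vehicle 0.2% DMSO; gain of signal fitted against DMSO, cytotoxicity flagged by phase-contrast morphology.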

[10] = read-out: alkyl and aryl transferase (GSTA2), GSTA2 (gene 2939); test: CLD_GSTA2_48hr: CellzDirect (CLD) Gene Expression Assay for alkyl and aryl transferase (GSTA2) at 48 hours (AID 2283708);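 further: active means mRNA induction above DMSO vehicle baseline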
Procedure, shortened: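 GSTA2 mRNA quantified by qNPA chemiluminescence in human primary hepatocyte lysates after 48 h of daily fresh chemical dosing. Increases fitted against 0.2% DMSO vehicle baseline; cytotoxicity from morphology annotated yes/no.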

[11] = read-out: Cytochrome P450 2C9 (Homo sapiens) (UniProt P11712); test: CLD_CYP2C9_24hr: CellzDirect (CLD) Gene Expression Assay for xenobiotic metabolism (CYP2C9) at 24 hours (AID 2283688);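 on AC50: potency for induction meaning a rise in CYP2C9 mRNA over DMSO vehicle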
Procedure, shortened: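 Induction of CYP2C9 mRNA was quantified by quantitative nuclease protection assay (chemiluminescence), gain of signal versus 0.2% DMSO vehicle, 24 h after dosing. Human primary hepatocytes (two donors) received fresh chemical daily at multiple concentrations; morphology-based cytotoxicity flagged yes/no.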

[12] = read-out: ABC Transporter (ABCB11), ABCB11 (gene 8647); test: CLD_ABCB11_48hr: CellzDirect (CLD) Gene Expression Assay for ABC Transporter (ABCB11) at 48 hours (AID 2283697)
Procedure, shortened: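 Induction of ABCB11 mRNA relative to 0.2% DMSO, measured at 48 h by qNPA chemiluminescence. Cultured human hepatocytes (two donors) received fresh dosing solutions at several concentrations on two consecutive days.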

[13] = read-out: Broad substrate specificity ATP-binding cassette transporter ABCG2 (Homo sapiens) (UniProt Q9UNQ0); test: CLD_ABCG2_48hr: CellzDirect (CLD) Gene Expression Assay for ABC Transporter (ABCG2) at 48 hours (AID 2283704);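 on AC50: potency for induction of ABCG2 mRNA above the DMSO baseline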
Procedure, shortened: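 ABCG2 transcript measured at 48 h by quantitative nuclease protection (chemiluminescent) and fitted for increase relative to 0.2% DMSO. Hepatocyte cultures from separate donors got fresh compound daily over two days; morphology annotated cytotoxicity.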

[14] = read-out: organic anion transporter (SLCO1B1), SLCO1B1 (gene 10599); test: CLD_SLCO1B1_48hr: CellzDirect (CLD) Gene Expression Assay for organic anion transporter (SLCO1B1) at 48 hours (AID 2283707)
Procedure, shortened: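 SLCO1B1 transcript quantified by qNPA with chemiluminescent readout after 48 h of once-daily chemical exposure. Cultured human primary hepatocytes came from two donors, with 0.2% DMSO vehicle; positive-direction fitting against DMSO, cytotoxicity flagged by morphology.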

[15] = read-out: organic anion transporter (SLCO1B1), SLCO1B1 (gene 10599); test: CLD_SLCO1B1_24hr: CellzDirect (CLD) Gene Expression Assay for organic anion transporter (SLCO1B1) at 24 hours (AID 2283690)
Procedure, shortened: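 SLCO1B1 mRNA induction read at 24 h by quantitative nuclease protection assay (chemiluminescence), analyzed against DMSO baseline. Human hepatocyte cultures from separate donors received fresh dosing solutions daily; vehicle 0.2% DMSO; cytotoxicity flagged by phase-contrast morphology.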

[16] = read-out: Cytochrome P450 2B6 (Homo sapiens) (UniProt P20813); test: CLD_CYP2B6_48hr: CellzDirect (CLD) Gene Expression Assay for xenobiotic metabolism (CYP2B6) at 48 hours (AID 2283699);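 further: actives raise transcript level above DMSO so potency reflects induction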
Procedure, shortened: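 CYP2B6 transcript induction, read by quantitative nuclease protection (S1 digestion, chemiluminescent detection) 48 h after dosing, is fitted upward against 0.2% DMSO. Cultured human liver primary cells, two donor preparations, received fresh chemical daily over multiple concentrations.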

[17] = read-out: Cytochrome P450 3A4 (Homo sapiens) (UniProt P08684); test: CLD_CYP3A4_24hr: CellzDirect (CLD) Gene Expression Assay for xenobiotic metabolism (CYP3A4) at 24 hours (AID 2283689)
Procedure, shortened: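 CYP3A4 mRNA induction read by quantitative nuclease protection (chemiluminescence) 24 hr after dosing. Cultured human hepatocytes (two donor preparations) treated daily, vehicle 0.2% DMSO; phase-contrast morphology annotates cytotoxicity.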

[18] = read-out: sulfotransferase (SULT2A), SULT2A1 (gene 6822); test: CLD_SULT2A_24hr: CellzDirect (CLD) Gene Expression Assay for sulfotransferase (SULT2A) at 24 hours (AID 2283694);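 on AC50: potency for increased SULT2A1 mRNA level as induction over DMSO baseline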
Procedure, shortened: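 mRNA is measured by qNPA: probe hybridisation, S1 nuclease digestion, chemiluminescence, in lysates from human primary hepatocytes harvested 24 h after daily dosing. Vehicle was 0.2% DMSO. Phase-contrast microscopy flagged cytotoxicity (yes/no).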

Measured: AC50

CC(C)Oc1cccc(NC(=O)c2ccccc2C(F)(F)F)c1
inactive: [1] | [6]
active: [8] 36.6 µM
inconclusive: [2] 20 µM | [3] 20 µM | [4] 20 µM | [5] 6.45 µM | [7] 3.97 µM | [9] 7.87 µM | [10] 20 µM

CC(C)N1C(=O)N(c2ccccc2)CSC1=NC(C)(C)C
inconclusive: [3] 20 µM | [4] 20 µM | [12] 1.15 µM | [7] 20 µM | [9] 20 µM | [14] 20 µM
inactive: [11] | [6] | [13]

CCCSP(=O)(OCC)SCCC
inactive: [2] | [13] | [9] | [14]
inconclusive: [11] 20 µM | [15] 0.0527 µM | [3] 20 µM | [5] 20 µM | [12] 3.97 µM | [6] 1.9 µM | [7] 20 µM | [8] 20 µM | [10] 37.9 µM

Random excerpt: 2 compounds from above
CCCSP(=O)(OCC)SCCC
inactive: [2] | [13] | [9] | [14]
inconclusive: [11] 20 µM | [15] 0.0527 µM | [3] 20 µM | [5] 20 µM | [12] 3.97 µM | [6] 1.9 µM | [7] 20 µM | [8] 20 µM | [10] 37.9 µM

CC(C)N1C(=O)N(c2ccccc2)CSC1=NC(C)(C)C
inconclusive: [3] 20 µM | [4] 20 µM | [12] 1.15 µM | [7] 20 µM | [9] 20 µM | [14] 20 µM
inactive: [11] | [6] | [13]

More records.

CCC(C)(C)C(=O)OC1=C(c2ccc(Cl)cc2Cl)C(=O)OC12CCCCC2
inactive: [13] | [10]
inconclusive: [15] 1.89 µM | [2] 20 µM | [3] 20 µM | [4] 20 µM | [6] 20 µM | [7] 20 µM

CCc1cccc(CC)c1N(COC)C(=O)CCl
inactive: [15] | [13]
active: [16] 3.01 µM | [10] 32.1 µM
inconclusive: [1] 36 µM | [2] 5.12 µM | [6] 20 µM | [9] 1.86 µM

CC1(C)C(C=C(Cl)Cl)C1C(=O)OC(C#N)c1cccc(Oc2ccccc2)c1 (stereo not drawn)
inactive: [1] | [8]
inconclusive: [15] 20 µM | [2] 20 µM | [3] 3.97 µM | [12] 20 µM | [7] 20 µM | [13] 20 µM | [9] 10.8 µM | [14] 37.3 µM | [10] 20 µM

OCCOc1ccccc1
inactive: [11] | [17] | [2] | [3] | [4] | [6] | [7]
inconclusive: [5] 20 µM | [12] 20 µM | [13] 20 µM | [8] 20 µM | [9] 0.0004 µM | [14] 20 µM

COc1ccc(-c2ccccc2)cc1NNC(=O)OC(C)C
inactive: [3] | [5] | [12] | [6] | [7]
inconclusive: [11] 3.1 µM | [2] 2.54 µM | [9] 2 µM

COc1nc(NC(C)C)nc(NC(C)C)n1
inactive: [6]
inconclusive: [15] 20 µM | [2] 20 µM | [4] 3.97 µM | [18] 0.0004 µM | [7] 20 µM | [13] 20 µM | [9] 20 µM | [10] 20 µM

CO/N=C(/C1=NOCCO1)c1ccccc1Oc1ncnc(Oc2ccccc2Cl)c1F
inconclusive: [2] 3.8 µM | [9] 20 µM
inactive: [11] | [15] | [4] | [18] | [5] | [12]
active: [8] 32.4 µM
